Source: publication PMC3185932, “A truncated form of CD9-partner 1 (CD9P-1), GS-168AT2, potently inhibits in vivo tumour-induced angiogenesis and tumour growth” (British Journal of Cancer, 2011)
These are yes or no findings as the source states them, for the method shown. In cells and extracts the contact can be indirect. Some binding calls cover weakened binding; strength is not graded here.

The chains behind the UniProt entries cited, without tags or fusion partners.
UniProt P05556: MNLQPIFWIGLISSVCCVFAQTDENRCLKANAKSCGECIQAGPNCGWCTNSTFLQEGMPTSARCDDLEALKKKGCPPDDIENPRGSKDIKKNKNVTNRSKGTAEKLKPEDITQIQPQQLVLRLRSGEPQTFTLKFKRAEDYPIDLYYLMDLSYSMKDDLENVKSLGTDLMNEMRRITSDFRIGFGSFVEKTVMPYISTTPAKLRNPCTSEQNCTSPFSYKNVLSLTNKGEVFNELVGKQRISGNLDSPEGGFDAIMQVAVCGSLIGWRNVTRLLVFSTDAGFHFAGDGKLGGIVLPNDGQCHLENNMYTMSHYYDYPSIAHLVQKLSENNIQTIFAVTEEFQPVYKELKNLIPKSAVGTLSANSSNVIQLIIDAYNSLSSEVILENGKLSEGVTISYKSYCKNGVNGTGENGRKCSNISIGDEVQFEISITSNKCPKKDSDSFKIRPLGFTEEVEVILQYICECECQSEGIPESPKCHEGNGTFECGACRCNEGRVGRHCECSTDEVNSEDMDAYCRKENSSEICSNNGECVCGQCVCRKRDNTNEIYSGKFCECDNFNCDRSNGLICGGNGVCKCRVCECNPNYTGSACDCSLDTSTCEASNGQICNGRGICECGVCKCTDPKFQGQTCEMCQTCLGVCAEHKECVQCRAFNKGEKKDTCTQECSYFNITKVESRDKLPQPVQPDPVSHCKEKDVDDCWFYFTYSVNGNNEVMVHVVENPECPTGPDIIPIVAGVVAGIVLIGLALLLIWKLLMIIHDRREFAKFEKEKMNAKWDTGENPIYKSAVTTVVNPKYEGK

Legend:
Test in all cases: co-IP; hEC incubated with purified GS-168AT2 (40 μg ml^–1) or vehicle for 2 h, washed, lysed in 1% Brij 97 lysis buffer (10 mM Tris pH 7.5, 150 mM NaCl, 1 mM CaCl2, 1 mM MgCl2); CD9, CD81, CD151 or integrin β1 immunoprecipitated with their mAbs and protein G agarose at 4 °C; blot with 229T mAb against GS-168AT2; only the binder purified
[1] = molecular target: T1, CD81 (human (endogenous in hEC)) (UniProt P60033)
T1 sequence: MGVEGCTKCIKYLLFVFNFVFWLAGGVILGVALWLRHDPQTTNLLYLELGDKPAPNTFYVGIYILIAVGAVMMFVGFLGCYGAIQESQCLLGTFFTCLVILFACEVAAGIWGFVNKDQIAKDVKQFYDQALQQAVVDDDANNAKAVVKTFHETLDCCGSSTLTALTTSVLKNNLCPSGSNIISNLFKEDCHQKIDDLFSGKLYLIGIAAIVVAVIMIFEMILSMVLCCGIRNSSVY

[2] = molecular target: β1 integrins (human (endogenous in hEC)) (UniProt P05556)
[3] = molecular target: T2, CD151 (human (endogenous in hEC)) (UniProt P48509)
T2 sequence: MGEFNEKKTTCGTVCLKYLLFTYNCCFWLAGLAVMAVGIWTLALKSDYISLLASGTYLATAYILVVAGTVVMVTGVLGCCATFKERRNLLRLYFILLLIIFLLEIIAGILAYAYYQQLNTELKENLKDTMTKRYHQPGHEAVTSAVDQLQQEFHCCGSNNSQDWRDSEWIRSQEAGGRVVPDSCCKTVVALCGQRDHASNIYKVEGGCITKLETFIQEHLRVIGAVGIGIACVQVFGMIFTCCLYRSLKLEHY

binding [1]: binds weakly | binding [2]: no binding (tested: 40 μg ml^–1) | binding [3]: binds
B1: GS-168AT2, truncated form of CD9 partner-1 (CD9P-1), amino acid 724-832 (domain or fragment, human, UniProt Q9P2B2 724-832, looked up)
chain: DMAFDVSWFAVHSFGLDKAPVLLSSLDRKGIVTTSRRDWKSDLSLERVSVLEFLLQVHGSEDQDFGNYYCSVTPWVKSPTGSWQKEAEIHSKPVFITVKMDVLNAFKYP
notes: CD9 partner-1 (CD9P-1/FPRP/EWI-F), human, amino acid 724-832: the unglycosylated extracellular portion next to the transmembrane domain; cDNA from RNA of human endothelial cells; no removal of the tag is described. pET-30 EK/LIC is known to add His and S tags at the N-terminus (surmised); also called truncated CD9P-1; source: E. coli BL21(DE3)pLys, purified from the insoluble fraction in urea …
